The other results are listed elsewhere or left out.
Assays:
Test in all cases: log2 fold change, soluble protein after heating vs DMSO (PISA); higher = thermal stabilisation; K562 cells, 10 uM, 30 min; active = over 0.2 and 3.5 SD of the protein, either way, in both replicates (recomputed)
[1] = compound: C1=CC=C(C=C1)[C@H](COC2=CC3=C(C=C2)NC(=O)N3)NC(=O)C4=CC=CN(C4=O)CC5=CC(=C(C=C5)F)F
How it was run: (§1)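 K562 cells at 2×10^6 cells/mL were treated with 10 μM compound for 30 min. Aliquots were heated for 3 min across 48°C-58°C, pooled, and extracted in PBS with 0.5% NP-40 at 4°C; soluble protein was the supernatant after 21,000xg for 90 min. Soluble protein was quantified by TMTpro 16plex LC-MS/MS with channel sums equalised, and reported as log2 fold change in thermal stability against DMSO controls, with values from duplicates.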

By UniProt entry, the sequences of proteins in these tests, tags left out. Where a name states a change or a piece, a line headed by the entry shows the natural chain unless it says otherwise.
UniProt O14787: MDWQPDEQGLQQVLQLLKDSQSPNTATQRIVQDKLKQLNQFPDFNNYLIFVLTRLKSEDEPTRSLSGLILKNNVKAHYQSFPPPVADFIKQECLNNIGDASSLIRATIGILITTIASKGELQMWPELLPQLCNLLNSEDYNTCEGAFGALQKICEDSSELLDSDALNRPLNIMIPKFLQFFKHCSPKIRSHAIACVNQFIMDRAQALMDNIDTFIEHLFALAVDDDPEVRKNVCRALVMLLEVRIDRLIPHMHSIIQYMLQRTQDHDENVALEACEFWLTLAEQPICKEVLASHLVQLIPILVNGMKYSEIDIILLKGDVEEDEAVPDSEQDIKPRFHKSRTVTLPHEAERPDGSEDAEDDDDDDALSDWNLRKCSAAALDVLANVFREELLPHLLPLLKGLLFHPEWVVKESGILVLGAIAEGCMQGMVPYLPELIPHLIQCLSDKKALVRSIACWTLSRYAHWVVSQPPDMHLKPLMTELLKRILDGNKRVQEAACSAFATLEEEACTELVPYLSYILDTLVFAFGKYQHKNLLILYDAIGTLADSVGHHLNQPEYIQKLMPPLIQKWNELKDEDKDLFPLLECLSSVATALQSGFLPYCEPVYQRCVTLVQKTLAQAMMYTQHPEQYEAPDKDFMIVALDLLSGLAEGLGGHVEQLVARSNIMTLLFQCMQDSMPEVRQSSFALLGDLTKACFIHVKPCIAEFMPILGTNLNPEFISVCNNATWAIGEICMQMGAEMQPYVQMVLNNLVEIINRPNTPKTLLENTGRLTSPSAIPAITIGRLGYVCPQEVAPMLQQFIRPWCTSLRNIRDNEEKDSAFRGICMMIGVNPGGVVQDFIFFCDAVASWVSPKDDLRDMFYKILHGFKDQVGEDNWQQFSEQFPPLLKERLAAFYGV
UniProt Q9ULW0, whole entry, looked up: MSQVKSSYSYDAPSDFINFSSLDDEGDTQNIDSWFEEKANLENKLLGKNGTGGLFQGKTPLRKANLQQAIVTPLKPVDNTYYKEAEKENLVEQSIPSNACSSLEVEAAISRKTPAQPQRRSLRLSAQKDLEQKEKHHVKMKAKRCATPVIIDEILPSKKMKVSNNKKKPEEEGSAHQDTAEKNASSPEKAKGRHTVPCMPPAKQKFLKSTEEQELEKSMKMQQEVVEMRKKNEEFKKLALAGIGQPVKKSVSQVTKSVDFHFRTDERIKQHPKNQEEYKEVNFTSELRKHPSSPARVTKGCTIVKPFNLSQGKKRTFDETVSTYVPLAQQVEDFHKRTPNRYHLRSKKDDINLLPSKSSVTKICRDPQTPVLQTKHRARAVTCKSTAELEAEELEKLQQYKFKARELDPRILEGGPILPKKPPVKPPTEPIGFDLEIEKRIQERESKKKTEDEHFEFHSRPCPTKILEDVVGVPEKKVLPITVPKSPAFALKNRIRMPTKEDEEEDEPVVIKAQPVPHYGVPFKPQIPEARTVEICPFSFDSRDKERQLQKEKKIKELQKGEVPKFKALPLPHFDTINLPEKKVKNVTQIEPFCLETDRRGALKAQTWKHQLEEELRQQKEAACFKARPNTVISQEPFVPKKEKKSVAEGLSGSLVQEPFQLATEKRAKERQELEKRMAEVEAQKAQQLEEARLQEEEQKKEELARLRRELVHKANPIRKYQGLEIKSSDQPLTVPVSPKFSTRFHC
UniProt Q5JTV8: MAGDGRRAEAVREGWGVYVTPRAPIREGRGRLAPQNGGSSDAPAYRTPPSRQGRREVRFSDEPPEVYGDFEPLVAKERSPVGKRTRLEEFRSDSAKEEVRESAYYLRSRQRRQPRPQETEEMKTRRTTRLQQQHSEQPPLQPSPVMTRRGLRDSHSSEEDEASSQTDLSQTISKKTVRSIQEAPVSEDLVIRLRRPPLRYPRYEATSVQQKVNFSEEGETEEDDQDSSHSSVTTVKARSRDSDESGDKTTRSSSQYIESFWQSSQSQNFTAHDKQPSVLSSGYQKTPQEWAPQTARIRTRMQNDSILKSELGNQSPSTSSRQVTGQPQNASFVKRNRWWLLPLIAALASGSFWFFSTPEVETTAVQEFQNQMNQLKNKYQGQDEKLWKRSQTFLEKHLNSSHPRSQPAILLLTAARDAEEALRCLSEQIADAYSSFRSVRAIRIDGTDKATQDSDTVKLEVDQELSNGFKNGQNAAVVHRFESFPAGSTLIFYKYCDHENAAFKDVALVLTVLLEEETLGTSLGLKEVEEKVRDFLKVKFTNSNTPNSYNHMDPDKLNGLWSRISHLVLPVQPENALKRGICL
UniProt Q13049: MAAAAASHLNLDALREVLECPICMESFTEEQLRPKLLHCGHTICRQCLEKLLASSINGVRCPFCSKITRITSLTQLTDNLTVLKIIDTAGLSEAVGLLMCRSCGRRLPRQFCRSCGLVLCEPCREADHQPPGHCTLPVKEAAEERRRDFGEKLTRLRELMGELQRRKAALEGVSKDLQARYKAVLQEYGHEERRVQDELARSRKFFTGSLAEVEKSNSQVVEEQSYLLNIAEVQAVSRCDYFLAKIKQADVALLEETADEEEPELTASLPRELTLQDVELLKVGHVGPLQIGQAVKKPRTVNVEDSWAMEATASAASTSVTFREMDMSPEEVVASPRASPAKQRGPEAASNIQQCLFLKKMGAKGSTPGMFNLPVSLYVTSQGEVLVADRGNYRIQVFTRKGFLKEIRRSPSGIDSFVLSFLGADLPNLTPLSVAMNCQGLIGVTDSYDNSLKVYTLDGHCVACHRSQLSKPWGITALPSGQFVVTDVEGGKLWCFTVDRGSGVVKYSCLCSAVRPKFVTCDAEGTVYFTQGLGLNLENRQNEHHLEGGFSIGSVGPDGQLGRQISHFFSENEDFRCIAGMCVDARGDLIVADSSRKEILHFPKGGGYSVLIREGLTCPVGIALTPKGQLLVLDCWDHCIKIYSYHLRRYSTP
UniProt O96008: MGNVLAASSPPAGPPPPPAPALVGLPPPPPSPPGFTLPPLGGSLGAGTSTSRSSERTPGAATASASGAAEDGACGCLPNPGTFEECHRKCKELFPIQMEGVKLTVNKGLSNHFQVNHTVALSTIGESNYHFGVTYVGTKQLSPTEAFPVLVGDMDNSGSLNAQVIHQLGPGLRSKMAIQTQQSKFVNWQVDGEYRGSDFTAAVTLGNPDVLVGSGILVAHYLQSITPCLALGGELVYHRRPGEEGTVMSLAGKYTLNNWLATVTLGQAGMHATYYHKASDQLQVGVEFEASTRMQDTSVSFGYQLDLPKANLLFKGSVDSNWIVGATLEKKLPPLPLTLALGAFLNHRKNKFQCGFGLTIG
UniProt P11388: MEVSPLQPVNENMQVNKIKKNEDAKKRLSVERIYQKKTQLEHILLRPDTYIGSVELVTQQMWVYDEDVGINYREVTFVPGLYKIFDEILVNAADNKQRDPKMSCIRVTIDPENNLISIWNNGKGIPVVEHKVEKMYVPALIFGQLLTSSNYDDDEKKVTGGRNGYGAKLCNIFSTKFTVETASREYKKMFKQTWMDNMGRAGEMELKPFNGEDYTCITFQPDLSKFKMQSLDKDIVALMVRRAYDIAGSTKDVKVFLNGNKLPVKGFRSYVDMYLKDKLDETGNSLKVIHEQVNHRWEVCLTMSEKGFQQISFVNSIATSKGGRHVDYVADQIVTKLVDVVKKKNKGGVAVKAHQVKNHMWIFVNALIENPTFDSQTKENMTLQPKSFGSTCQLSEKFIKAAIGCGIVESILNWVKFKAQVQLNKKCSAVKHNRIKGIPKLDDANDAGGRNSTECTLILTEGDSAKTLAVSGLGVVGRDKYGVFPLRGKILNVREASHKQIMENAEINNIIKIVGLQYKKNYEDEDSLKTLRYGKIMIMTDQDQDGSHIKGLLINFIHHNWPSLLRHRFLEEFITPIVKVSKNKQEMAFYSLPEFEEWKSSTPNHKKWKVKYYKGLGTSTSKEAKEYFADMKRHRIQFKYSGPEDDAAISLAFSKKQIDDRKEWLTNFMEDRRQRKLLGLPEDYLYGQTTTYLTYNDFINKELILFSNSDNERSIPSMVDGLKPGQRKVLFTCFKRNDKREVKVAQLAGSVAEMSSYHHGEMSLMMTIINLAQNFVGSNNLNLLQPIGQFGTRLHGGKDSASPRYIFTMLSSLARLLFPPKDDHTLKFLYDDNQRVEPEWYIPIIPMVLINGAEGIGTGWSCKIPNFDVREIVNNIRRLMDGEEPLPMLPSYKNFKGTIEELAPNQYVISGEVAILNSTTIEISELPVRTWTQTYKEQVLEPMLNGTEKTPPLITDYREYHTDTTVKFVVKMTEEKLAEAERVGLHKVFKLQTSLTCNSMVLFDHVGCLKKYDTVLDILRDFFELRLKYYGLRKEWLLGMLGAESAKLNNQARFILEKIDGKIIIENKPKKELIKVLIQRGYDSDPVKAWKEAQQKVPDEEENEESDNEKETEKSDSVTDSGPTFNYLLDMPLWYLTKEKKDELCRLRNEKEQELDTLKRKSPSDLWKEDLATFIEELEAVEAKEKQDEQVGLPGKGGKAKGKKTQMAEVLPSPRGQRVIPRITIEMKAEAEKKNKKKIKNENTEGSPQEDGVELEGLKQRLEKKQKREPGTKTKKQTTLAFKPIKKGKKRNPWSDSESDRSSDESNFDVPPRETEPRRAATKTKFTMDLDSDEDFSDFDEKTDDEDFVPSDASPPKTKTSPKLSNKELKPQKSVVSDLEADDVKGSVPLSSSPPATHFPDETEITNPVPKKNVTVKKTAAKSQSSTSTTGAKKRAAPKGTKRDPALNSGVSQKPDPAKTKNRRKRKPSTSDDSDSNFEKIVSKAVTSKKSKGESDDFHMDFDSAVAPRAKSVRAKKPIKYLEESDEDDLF
UniProt Q9Y5R8, whole entry, looked up: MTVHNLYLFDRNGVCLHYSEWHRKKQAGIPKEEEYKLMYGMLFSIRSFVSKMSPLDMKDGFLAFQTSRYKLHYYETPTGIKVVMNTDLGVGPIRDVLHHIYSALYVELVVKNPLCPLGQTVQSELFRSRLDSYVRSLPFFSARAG
UniProt Q9UKE5: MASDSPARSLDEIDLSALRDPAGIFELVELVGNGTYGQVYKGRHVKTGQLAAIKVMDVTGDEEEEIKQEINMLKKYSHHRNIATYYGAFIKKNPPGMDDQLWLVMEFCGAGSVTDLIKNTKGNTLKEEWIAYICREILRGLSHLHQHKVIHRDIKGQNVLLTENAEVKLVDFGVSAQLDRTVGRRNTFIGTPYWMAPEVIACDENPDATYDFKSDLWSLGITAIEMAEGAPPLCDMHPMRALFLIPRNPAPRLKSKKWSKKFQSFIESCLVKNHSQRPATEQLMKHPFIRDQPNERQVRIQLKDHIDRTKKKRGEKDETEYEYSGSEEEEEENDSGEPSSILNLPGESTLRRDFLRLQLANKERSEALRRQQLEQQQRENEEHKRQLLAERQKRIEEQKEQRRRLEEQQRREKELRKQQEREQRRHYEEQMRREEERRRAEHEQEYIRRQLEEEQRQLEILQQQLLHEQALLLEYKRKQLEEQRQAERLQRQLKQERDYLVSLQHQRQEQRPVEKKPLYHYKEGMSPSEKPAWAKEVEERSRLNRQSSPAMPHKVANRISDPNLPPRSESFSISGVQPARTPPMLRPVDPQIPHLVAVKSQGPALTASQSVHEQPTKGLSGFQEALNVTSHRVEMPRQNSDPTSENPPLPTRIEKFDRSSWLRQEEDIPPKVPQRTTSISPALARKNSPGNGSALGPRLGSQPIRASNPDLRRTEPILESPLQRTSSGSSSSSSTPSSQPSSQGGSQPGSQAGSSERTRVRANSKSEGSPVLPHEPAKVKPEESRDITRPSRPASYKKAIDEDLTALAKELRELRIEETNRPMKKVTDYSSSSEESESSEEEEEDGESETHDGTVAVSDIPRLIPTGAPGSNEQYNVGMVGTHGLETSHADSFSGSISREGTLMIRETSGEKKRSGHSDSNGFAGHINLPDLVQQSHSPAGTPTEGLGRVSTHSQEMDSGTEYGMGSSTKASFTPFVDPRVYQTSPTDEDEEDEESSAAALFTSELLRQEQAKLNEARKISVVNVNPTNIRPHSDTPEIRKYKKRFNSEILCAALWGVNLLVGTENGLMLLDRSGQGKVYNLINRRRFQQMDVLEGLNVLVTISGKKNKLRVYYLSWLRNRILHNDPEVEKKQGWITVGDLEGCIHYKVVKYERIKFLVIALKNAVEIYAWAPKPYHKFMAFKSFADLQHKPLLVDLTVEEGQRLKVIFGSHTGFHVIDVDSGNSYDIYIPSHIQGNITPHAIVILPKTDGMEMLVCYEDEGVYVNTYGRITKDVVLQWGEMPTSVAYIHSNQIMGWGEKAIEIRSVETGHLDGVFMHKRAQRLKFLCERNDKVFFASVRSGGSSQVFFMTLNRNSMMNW
UniProt Q8WW01: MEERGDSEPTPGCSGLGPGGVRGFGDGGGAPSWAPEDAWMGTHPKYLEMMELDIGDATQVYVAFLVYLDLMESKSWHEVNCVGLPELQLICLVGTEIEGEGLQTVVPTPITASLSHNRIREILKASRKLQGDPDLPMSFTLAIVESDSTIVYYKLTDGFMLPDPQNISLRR

[2] = compound: CC1=C(SC2=C1C(=N[C@H](C3=NN=C(N32)C)CC(=O)N)C4=CC=C(C=C4)Cl)C
How it was run: as §1

[3] = compound: CC1=C2C(=CC=C1)N=C(N(C2=O)C3=CC=CC=C3C)CN4C=NC5=C(N=CN=C54)N
How it was run: as §1

[4] = compound: Cc1sc2c(c1C)C(c1ccc(Cl)cc1)=N[C@@H](CC(=O)OC(C)(C)C)c1nnc(C)n1-2
How it was run: as §1

[5] = compound: c1ccc([C@@H]2C[C@H]2NC2CCNCC2)cc1
How it was run: as §1

Measured: log2 fold change

TNPO2 (UniProt O14787)
inactive: [1] -0.067 | [2] 0.03 | [3] 0.158 | [4] -0.051 | [5] -0.005

TPM4, A0A2R8Y5V9
inactive: [1] 0.016 | [2] -0.008 | [3] -0.008 | [4] -0.006 | [5] 0.025

TPX2 (UniProt Q9ULW0)
inactive: [1] 0.016 | [2] -0.012 | [3] -0.066 | [4] 0.058 | [5] 0.041

TRIP10 (UniProt Q15642)
inactive: [1] 0.016 | [2] 0.005 | [3] 0.081 | [4] 0.014 | [5] 0.037

TRIP4 (UniProt Q15650)
inactive: [1] -0.064 | [2] -0.028 | [3] 0.047 | [4] 0.088 | [5] -0.013

TOR1AIP1 isoform 3 (UniProt Q5JTV8)
inactive: [1] 0.037 | [2] 0.013 | [3] 0.014 | [4] -0.015 | [5] 0.015

TRIM32 (UniProt Q13049)
inactive: [1] -0.012 | [2] 0.062 | [3] -0.113 | [4] 0.107 | [5] 0.05

TOMM40 (UniProt O96008)
inactive: [1] -0.008 | [2] 0.01 | [3] -0.032 | [4] -0.022 | [5] 0.011

TOP2A isoform 4 (UniProt P11388)
inactive: [1] 0.157 | [2] -0.322 | [3] -0.703 | [4] 0.252 | [5] 0.002

TRAPPC10 (UniProt P48553)
inactive: [1] 0.029 | [2] 0.039 | [3] 0.024 | [4] 0.006 | [5] -0.035

TRAPPC1 (UniProt Q9Y5R8)
inactive: [1] -0.072 | [2] 0.122 | [3] 0.063 | [4] -0.032 | [5] -0.046

TPP2 (UniProt P29144)
inactive: [1] 0.06 | [2] -0.209 | [3] -0.127 | [4] -0.1 | [5] -0.001

TRA2B (UniProt P62995)
inactive: [1] 0.227 | [2] -0.349 | [3] -0.11 | [4] 0.318 | [5] 0.048

TNIK isoform 3 (UniProt Q9UKE5)
inactive: [1] -0.124 | [2] 0.015 | [3] 0.042 | [4] -0.021 | [5] -0.02

TPM2 (UniProt P07951)
inactive: [1] -0.041 | [2] -0.117 | [3] -0.195 | [4] -0.017 | [5] 0.014

TRAPPC6B (UniProt Q86SZ2)
inactive: [1] -0.007 | [2] 0.061 | [3] 0.048 | [4] -0.033 | [5] -0.013

TRPV2 (UniProt Q9Y5S1)
inactive: [1] -0.026 | [2] 0.053 | [3] 0.062 | [4] -0.048 | [5] 0.02

TOX4 (UniProt O94842)
inactive: [1] 0.071 | [2] -0.116 | [3] -0.08 | [4] 0.124 | [5] 0.098

TRIP6 (UniProt Q15654)
inactive: [1] 0.004 | [2] 0.027 | [3] 0.017 | [4] -0.043 | [5] 0.006

TRAF4 (UniProt Q9BUZ4)
inactive: [1] -0.085 | [2] -0.105 | [3] 0.03 | [4] 0.106 | [5] 0.062

TOR1A (UniProt O14656)
inactive: [1] 0.015 | [2] 0.052 | [3] 0.029 | [4] -0.023 | [5] 0.046

Pulled one by one from above (2):
TRPV2 (UniProt Q9Y5S1)
inactive: [1] -0.026 | [2] 0.053 | [3] 0.062 | [4] -0.048 | [5] 0.02

TRAF4 (UniProt Q9BUZ4)
inactive: [1] -0.085 | [2] -0.105 | [3] 0.03 | [4] 0.106 | [5] 0.062

(listing goes on)

TPP2 (UniProt Q5VZU9)
inactive: [1] 0.093 | [2] -0.136 | [3] -0.003 | [4] -0.579 | [5] -0.021

TSEN15 (UniProt Q8WW01)
inactive: [1] 0.018 | [2] 0.218 | [3] 0.135 | [4] -0.105 | [5] -0.064

TRAPPC3 (UniProt O43617)
inactive: [1] -0.025 | [2] 0.03 | [3] 0.036 | [4] -0.024 | [5] 0.007

Reference: the supplement of paper PMC10849652
